Assay results taken from patent US8541460B2, “PDK-1/Akt signaling inhibitors” (The Ohio State University, priority 2003, dated 2013).
For at least one compound, name, drawing or mass did not settle the structure. Some entries share one result that the patent states for a list of compounds.

Tested on: sixty human tumor cell lines
Test: NCI DTP screen, means over sixty human tumor cell lines
Type: cell-based
Description: Screening of compounds 70 and 71 against several cancer cell lines The human tumor cell lines of the cancer screening panel are grown in RPMI 1640 medium containing 5% fetal bovine serum and 2 mM L-glutamine. For a typical screening experiment, cells are inoculated into 96 well microtiter plates in 100 μL at plating densities ranging from 5,000 to 40,000 cells/well depending on the doubling time of individual cell lines. After cell inoculation, the microtiter plates are incubated at 37° C., 5% CO2, 95% air and 100% relative humidity for 24 h prior to addition of experimental drugs. […]
Following drug addition, the plates are incubated for an additional 48 h at 37° C., 5% CO2, 95% air, and 100% relative humidity. […] Bound stain is subsequently solubilized with 10 mM trizma base, and the absorbance is read on an automated plate reader at a wavelength of 515 nm. […] Using the seven absorbance measurements [time zero, (Tz), control growth, (C), and test growth in the presence of drug at the five concentration levels (Ti)], the percentage growth is calculated at each of the drug concentrations levels. Percentage growth inhibition is calculated as: [(Ti−Tz)/(C−Tz)]×100 for concentrations for which Ti>/=Tz [(Ti−Tz)/Tz]×100 for concentrations for which Ti<Tz
Three dose response parameters are calculated for each experimental agent. […]

N=C(N)Nc1ccc(-n2nc(C(F)(F)F)cc2-c2ccc3c(ccc4ccccc43)c2)cc1 [Compound 71, 4-[5-(2-Phenanthrenyl)-3-(trifluoromethyl)-1H-pyrazol-1-yl]-phenyl-guanidine]
range at which cell growth is completely suppressed in a diverse range of tumor cell lines: 3 to 5 µM | GI50 (two-day treatment, read-out: mean GI50 among the sixty cell lines): 1300 nM
